Results taken from the supplement of paper PMC7877785.
± gives the uncertainty stated by the source. Many of these values have a large error.

Experiment: self-splicing fitness, log relative to wild type (ln ratio); higher = more splicing; Tetrahymena group I intron in knt gene, E. coli kanamycin selection, DiMSum; sequences stand for … in CUCUCU…GGAGGGAAAAGUUAUCAGGCAUGCACCUGGUAGCUAGUCUUUAAACCAAUAGAUUGCAUCGGUUUAAAAGGCAAGACCGUCAAAUUGCGGGAAAGGGGUCAACAGCCGUUCAGUACCAAGUCUCAGGGGAAACUUUGAGAUGGCCUUGCAAAGGGUAUGGUAAUAAGCUGACGGACAUGGUCCUAACCACGCAGCCAAGUCCUAAGUCAACAGAUCUUCUGUUGAUAUGGAUGCAGUUCACAGACUAAAUGUCGGUCGGGGAAGAUGUAUUCUUCUCAUAAGAUAUAGUCGGACCUCUCCUUAAUGGGAGCUAGCGGAUGAAGUGAUGCAACACUGGAGCCGCUGGGAACUAAUUUGUAUGCGAAAGUAUAUUGAUUAGUUUUGGAGUACUCGUGGUCG
How it was run: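 Six replicate transformations of E. coli BL21(DE3) with a pET-22b(+) library were grown overnight at 37°C or 30°C. The library randomised all eight P1ex-region intron nucleotides, the intron lying in the knt kanamycin-resistance gene, and plates were LB agar with or without 25 μg/mL kanamycin plus 100 μg/mL carbenicillin, 50 μM IPTG and 0.2% rhamnose. Pooled colonies were amplicon-sequenced on an Illumina HiSeq 2500, and fitness is the DiMSum error-weighted combination of wild-type-normalised replicate fold changes, kanamycin versus none.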

Sequence	self-splicing fitness (ln) (30 °C)	self-splicing fitness (ln) (37 °C)
AAAAAGCAAUAUUACGCCAC	-1.93 ± 0.52	
GGAGAGCAAUAUUACGCAUG	-3.02 ± 0.62	
CUCUAGCAAUAUUACGCCUA	-3.21 ± 0.67	-3.39 ± 0.6
CAUUAGCAAUAUUACGGCCU	-3.52 ± 0.18	-2.21 ± 0.21
UUAUAGCAAUAUUACGCCAA	-1.84 ± 0.54	
GCAGAGCAAUAUUACGUUUA		-2.83 ± 0.61
GAUGAGCAAUAUUACGCCGU	-3.56 ± 0.64	
AUCGAGCAAUAUUACGCAAC	-3.02 ± 0.65	-1.83 ± 1.1
AACAAGCAAUAUUACGUUGC	-2.83 ± 0.18	-3.21 ± 0.32
AAUGAGCAAUAUUACGGUAU	-4.41 ± 1	
GGCUAGCAAUAUUACGCUGG		-1.98 ± 0.79
UGGGAGCAAUAUUACGUGGG	-3.45 ± 0.52	-3.61 ± 0.73
CUAUAGCAAUAUUACGCCGC	-3.96 ± 1	
CGACAGCAAUAUUACGAAGA	-2.29 ± 0.17	-2.09 ± 0.16
CCUCAGCAAUAUUACGCAAA	-3.3 ± 0.56	
GCUUAGCAAUAUUACGGCCC		0.25 ± 0.57
UCGAAGCAAUAUUACGCAAC		-2.78 ± 0.61
GUUGAGCAAUAUUACGGAAU		-0.927 ± 0.71
AAGGAGCAAUAUUACGCGGG		-2.54 ± 0.63
UUCCAGCAAUAUUACGCUCG	-3.29 ± 0.52	
CCCUAGCAAUAUUACGCAAG	-3.65 ± 0.28	-2.06 ± 0.23
AGGCAGCAAUAUUACGACGG	-2.49 ± 0.16	-0.746 ± 0.22
ACGGAGCAAUAUUACGAGUG	-4.78 ± 0.52	
UGGUAGCAAUAUUACGUUAC		-1.78 ± 0.65

Taken from the results shown (five entries):
Sequence	self-splicing fitness (ln) (30 °C)	self-splicing fitness (ln) (37 °C)
GGCUAGCAAUAUUACGCUGG		-1.98 ± 0.79
UGGGAGCAAUAUUACGUGGG	-3.45 ± 0.52	-3.61 ± 0.73
CUAUAGCAAUAUUACGCCGC	-3.96 ± 1	
CGACAGCAAUAUUACGAAGA	-2.29 ± 0.17	-2.09 ± 0.16
CCUCAGCAAUAUUACGCAAA	-3.3 ± 0.56	

Continued:

Sequence	self-splicing fitness (ln) (30 °C)	self-splicing fitness (ln) (37 °C)
UCUCAGCAAUAUUACGAAGC		-2.18 ± 0.67
ACAUAGCAAUAUUACGCUCC	-1.62 ± 0.17	-2.05 ± 0.23
GCGCAGCAAUAUUACGACAC	-0.738 ± 0.38	-0.194 ± 0.59
UCCGAGCAAUAUUACGCGCC		-1.61 ± 0.84
CAUGAGCAAUAUUACGUUCG	-1.33 ± 0.13	-0.161 ± 0.14
CGGCAGCAAUAUUACGAAAC	-3.19 ± 0.33	-2.93 ± 0.25
CUGCAGCAAUAUUACGCCUA	-3.46 ± 0.74	
UUGGAGCAAUAUUACGCGAA	-3.7 ± 1.1	
GAUGAGCAAUAUUACGGACG	-4.75 ± 0.72	
UCCGAGCAAUAUUACGUCCG		-2.61 ± 0.53
AGGAAGCAAUAUUACGCUUC		-2.08 ± 1.1
GGAGAGCAAUAUUACGGCGC	-0.753 ± 0.62	-0.134 ± 0.63
UGACAGCAAUAUUACGACCU	-1.09 ± 0.11	0.0765 ± 0.14
ACGGAGCAAUAUUACGCACC	-4.59 ± 0.72	-0.785 ± 0.57
AGGAAGCAAUAUUACGCCCU		-3.03 ± 0.53
GCGGAGCAAUAUUACGAGAA	-1.52 ± 1.2	
UGGCAGCAAUAUUACGUCAC	-3.7 ± 0.78	-2.55 ± 0.83
CUAUAGCAAUAUUACGAACU	-3.67 ± 0.43	-3.19 ± 0.74
AAUAAGCAAUAUUACGUCCC	-0.502 ± 0.17	0.393 ± 0.26
CUGGAGCAAUAUUACGCUGC		-2.35 ± 0.77
GUCGAGCAAUAUUACGAGCU		-0.78 ± 0.55
CGAUAGCAAUAUUACGAGCG	-0.984 ± 0.12	-0.453 ± 0.13
AGUUAGCAAUAUUACGCUAG	-3.76 ± 0.6	-2.84 ± 0.6
GUCGAGCAAUAUUACGACCU	-3.72 ± 1	

Sequence	self-splicing fitness (ln) (30 °C)	self-splicing fitness (ln) (37 °C)
UUGCAGCAAUAUUACGACGC		-2.24 ± 0.58
UACCAGCAAUAUUACGAAUA	-0.776 ± 0.086	0.199 ± 0.093
UUCCAGCAAUAUUACGAUCC		-1.69 ± 1.2
AAGUAGCAAUAUUACGCUCC	0.062 ± 1.1	0.136 ± 0.58
UAGUAGCAAUAUUACGCCAA	-3.28 ± 0.29	-2.02 ± 0.24
UAGGAGCAAUAUUACGAACA		-1.04 ± 0.5
AGCUAGCAAUAUUACGGCUC	-3.32 ± 0.37	-3.06 ± 0.43
AGAGAGCAAUAUUACGCAGA		-2.39 ± 0.55
GCGGAGCAAUAUUACGCCAU	-2.65 ± 1.1	
UGAGAGCAAUAUUACGUACC		-3.08 ± 1.1
GCACAGCAAUAUUACGCCAC	-4.26 ± 1	
AUGGAGCAAUAUUACGAACC		-1.88 ± 1.2
GGGGAGCAAUAUUACGCAAC		0.000402 ± 1.2
UUGCAGCAAUAUUACGCAAC	-5.62 ± 0.71	
GACGAGCAAUAUUACGCAAU	-5.39 ± 1	
UCGAAGCAAUAUUACGUAUC		-3.47 ± 0.52
GCUCAGCAAUAUUACGAGUA	-0.337 ± 0.098	-0.433 ± 0.1
GGAGAGCAAUAUUACGAUCU	-6.03 ± 1	
CUUGAGCAAUAUUACGAAGG		-2.88 ± 0.75
GUGGAGCAAUAUUACGUCUG	-4.44 ± 0.59	
UGCGAGCAAUAUUACGGAGG	-3.52 ± 1.1	
GUGAAGCAAUAUUACGCAGC	-0.868 ± 1.4	-1.37 ± 0.87
GGUGAGCAAUAUUACGCGAU		-2.56 ± 0.53
AACAAGCAAUAUUACGUUAC	-3.54 ± 0.11	-3.01 ± 0.18

Sequence	self-splicing fitness (ln) (30 °C)	self-splicing fitness (ln) (37 °C)
UCCAAGCAAUAUUACGCAUG	-4.8 ± 0.31	-2.27 ± 0.19
UAAGAGCAAUAUUACGAACC	-1.95 ± 0.82	
GGGUAGCAAUAUUACGGAAC	-0.98 ± 0.11	-1.49 ± 0.19
UGAGAGCAAUAUUACGGACC		-1.79 ± 1.2
AGUCAGCAAUAUUACGAAAC	-3.71 ± 0.73	
UAGAAGCAAUAUUACGGCCC	-1.54 ± 0.72	0.504 ± 1.2
AUAUAGCAAUAUUACGUCAC	-3.36 ± 0.66	-1.01 ± 0.51
GUGCAGCAAUAUUACGCCAC	-1.34 ± 0.73	
CUUUAGCAAUAUUACGCGUU	-3.9 ± 0.51	-3.44 ± 0.6
AUGUAGCAAUAUUACGCCGC	-2.4 ± 0.56	-1.69 ± 1.2
GAGUAGCAAUAUUACGCUGC	-2.81 ± 1.1	-2.05 ± 0.53
CUCGAGCAAUAUUACGCACG		-3.3 ± 0.52
GUCAAGCAAUAUUACGAUUG	-5.32 ± 0.51	
CCUGAGCAAUAUUACGACCC		-2.08 ± 1.1
CCUCAGCAAUAUUACGCCAA		-2.69 ± 0.53
AAAGAGCAAUAUUACGACUG		-1.93 ± 0.51
CAUGAGCAAUAUUACGCUAC	-1.04 ± 0.67	
AAAGAGCAAUAUUACGCCCC	0.285 ± 1.1	-1.78 ± 1.2
GAGGAGCAAUAUUACGCUAA		-1.98 ± 0.66
GUGCAGCAAUAUUACGUCAC	-4.41 ± 0.72	
AUGUAGCAAUAUUACGCGGA	-2.41 ± 0.3	-1.09 ± 0.2
UCGGAGCAAUAUUACGAGAA	-3.56 ± 0.63	-2.93 ± 0.74
GGAGAGCAAUAUUACGGAAU	-3.07 ± 0.53	-2.23 ± 0.55
GUUUAGCAAUAUUACGCCCC	0.285 ± 1.1	-0.44 ± 1

Sequence	self-splicing fitness (ln) (30 °C)	self-splicing fitness (ln) (37 °C)
CGUUAGCAAUAUUACGAGUC	-3.26 ± 0.51	-3.06 ± 0.61
GCGGAGCAAUAUUACGCUAA	-1.96 ± 1.2	-2.98 ± 1.1
GUGGAGCAAUAUUACGACAC	-3.83 ± 0.73	-1.6 ± 0.53
AGCCAGCAAUAUUACGCCUC	-2.47 ± 1.1	
UACGAGCAAUAUUACGGGCC	-4.32 ± 0.51	
GCGCAGCAAUAUUACGUGGA	-1.48 ± 0.098	-0.745 ± 0.098
AACAAGCAAUAUUACGGGGC	-4.29 ± 0.53	
UUGGAGCAAUAUUACGCAUC		-0.529 ± 0.61
GGUAAGCAAUAUUACGAGGC	-3.57 ± 1	-1.74 ± 0.66
CGCUAGCAAUAUUACGGCGC		-2.7 ± 0.54
GGAGAGCAAUAUUACGUGGA	-5.68 ± 1	
GUAUAGCAAUAUUACGCAUC	-2.15 ± 0.17	-0.982 ± 0.13
UCGGAGCAAUAUUACGUUCC	-0.354 ± 0.53	-1.79 ± 1.2
GUCGAGCAAUAUUACGCCUA	-2.98 ± 0.79	
UCAGAGCAAUAUUACGCUGG	-3.76 ± 1	-2.88 ± 0.75
GGUAAGCAAUAUUACGCCAC	-1.43 ± 0.51	
CAGGAGCAAUAUUACGCAUA	-4.16 ± 0.72	
CGGGAGCAAUAUUACGACCA		-1.48 ± 0.84
GCAGAGCAAUAUUACGCCUA	-3.13 ± 0.62	
CUAUAGCAAUAUUACGCUCA	-3.46 ± 1.1	-3.1 ± 0.61
UACGAGCAAUAUUACGCGCU	-5.14 ± 0.58	
UGGAAGCAAUAUUACGAGCC	-3.08 ± 0.62	-1.72 ± 0.68
